This is one part of the list.

Protein sequences, listed by entry. Tags and fused reporters are not part of them. Lines headed by an entry give the natural chain unless they say otherwise; changes in a name come on top.
UniProt O75935, whole entry, looked up: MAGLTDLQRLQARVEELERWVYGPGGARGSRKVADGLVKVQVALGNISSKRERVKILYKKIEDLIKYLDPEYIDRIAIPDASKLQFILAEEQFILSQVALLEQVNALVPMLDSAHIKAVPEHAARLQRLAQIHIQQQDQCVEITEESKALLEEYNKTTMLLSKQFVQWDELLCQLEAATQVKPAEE
UniProt Q9UHI6: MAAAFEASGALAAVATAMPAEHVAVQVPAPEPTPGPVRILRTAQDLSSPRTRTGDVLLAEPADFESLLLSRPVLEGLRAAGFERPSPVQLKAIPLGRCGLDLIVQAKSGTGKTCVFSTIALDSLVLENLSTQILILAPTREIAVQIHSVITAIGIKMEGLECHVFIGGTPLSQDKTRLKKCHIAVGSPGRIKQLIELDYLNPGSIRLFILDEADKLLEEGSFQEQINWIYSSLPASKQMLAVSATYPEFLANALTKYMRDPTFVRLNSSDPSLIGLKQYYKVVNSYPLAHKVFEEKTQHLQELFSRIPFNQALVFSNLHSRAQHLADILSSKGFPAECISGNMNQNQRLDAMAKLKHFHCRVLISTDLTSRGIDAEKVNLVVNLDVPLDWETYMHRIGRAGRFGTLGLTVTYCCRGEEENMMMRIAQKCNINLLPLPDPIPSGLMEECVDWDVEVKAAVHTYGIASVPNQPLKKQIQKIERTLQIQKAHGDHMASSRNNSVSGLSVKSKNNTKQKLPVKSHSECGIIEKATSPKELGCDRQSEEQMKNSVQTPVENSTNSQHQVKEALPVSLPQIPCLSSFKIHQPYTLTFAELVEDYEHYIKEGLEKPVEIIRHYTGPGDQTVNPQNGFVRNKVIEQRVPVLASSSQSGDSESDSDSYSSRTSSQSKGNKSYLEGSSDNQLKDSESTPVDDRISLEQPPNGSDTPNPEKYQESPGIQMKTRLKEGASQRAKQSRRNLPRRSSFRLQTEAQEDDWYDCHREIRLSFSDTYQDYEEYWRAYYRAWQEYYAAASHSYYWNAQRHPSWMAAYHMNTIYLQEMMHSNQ
UniProt P35659: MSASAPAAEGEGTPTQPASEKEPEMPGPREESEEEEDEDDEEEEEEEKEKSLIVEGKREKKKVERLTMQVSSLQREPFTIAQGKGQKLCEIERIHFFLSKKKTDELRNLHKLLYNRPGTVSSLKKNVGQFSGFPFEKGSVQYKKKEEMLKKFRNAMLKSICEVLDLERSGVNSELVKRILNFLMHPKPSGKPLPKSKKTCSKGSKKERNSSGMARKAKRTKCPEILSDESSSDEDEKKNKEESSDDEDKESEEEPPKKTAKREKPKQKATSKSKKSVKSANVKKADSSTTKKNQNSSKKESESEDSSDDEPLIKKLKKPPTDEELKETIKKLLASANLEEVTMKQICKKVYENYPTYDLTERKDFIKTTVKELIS
UniProt Q5VZ89: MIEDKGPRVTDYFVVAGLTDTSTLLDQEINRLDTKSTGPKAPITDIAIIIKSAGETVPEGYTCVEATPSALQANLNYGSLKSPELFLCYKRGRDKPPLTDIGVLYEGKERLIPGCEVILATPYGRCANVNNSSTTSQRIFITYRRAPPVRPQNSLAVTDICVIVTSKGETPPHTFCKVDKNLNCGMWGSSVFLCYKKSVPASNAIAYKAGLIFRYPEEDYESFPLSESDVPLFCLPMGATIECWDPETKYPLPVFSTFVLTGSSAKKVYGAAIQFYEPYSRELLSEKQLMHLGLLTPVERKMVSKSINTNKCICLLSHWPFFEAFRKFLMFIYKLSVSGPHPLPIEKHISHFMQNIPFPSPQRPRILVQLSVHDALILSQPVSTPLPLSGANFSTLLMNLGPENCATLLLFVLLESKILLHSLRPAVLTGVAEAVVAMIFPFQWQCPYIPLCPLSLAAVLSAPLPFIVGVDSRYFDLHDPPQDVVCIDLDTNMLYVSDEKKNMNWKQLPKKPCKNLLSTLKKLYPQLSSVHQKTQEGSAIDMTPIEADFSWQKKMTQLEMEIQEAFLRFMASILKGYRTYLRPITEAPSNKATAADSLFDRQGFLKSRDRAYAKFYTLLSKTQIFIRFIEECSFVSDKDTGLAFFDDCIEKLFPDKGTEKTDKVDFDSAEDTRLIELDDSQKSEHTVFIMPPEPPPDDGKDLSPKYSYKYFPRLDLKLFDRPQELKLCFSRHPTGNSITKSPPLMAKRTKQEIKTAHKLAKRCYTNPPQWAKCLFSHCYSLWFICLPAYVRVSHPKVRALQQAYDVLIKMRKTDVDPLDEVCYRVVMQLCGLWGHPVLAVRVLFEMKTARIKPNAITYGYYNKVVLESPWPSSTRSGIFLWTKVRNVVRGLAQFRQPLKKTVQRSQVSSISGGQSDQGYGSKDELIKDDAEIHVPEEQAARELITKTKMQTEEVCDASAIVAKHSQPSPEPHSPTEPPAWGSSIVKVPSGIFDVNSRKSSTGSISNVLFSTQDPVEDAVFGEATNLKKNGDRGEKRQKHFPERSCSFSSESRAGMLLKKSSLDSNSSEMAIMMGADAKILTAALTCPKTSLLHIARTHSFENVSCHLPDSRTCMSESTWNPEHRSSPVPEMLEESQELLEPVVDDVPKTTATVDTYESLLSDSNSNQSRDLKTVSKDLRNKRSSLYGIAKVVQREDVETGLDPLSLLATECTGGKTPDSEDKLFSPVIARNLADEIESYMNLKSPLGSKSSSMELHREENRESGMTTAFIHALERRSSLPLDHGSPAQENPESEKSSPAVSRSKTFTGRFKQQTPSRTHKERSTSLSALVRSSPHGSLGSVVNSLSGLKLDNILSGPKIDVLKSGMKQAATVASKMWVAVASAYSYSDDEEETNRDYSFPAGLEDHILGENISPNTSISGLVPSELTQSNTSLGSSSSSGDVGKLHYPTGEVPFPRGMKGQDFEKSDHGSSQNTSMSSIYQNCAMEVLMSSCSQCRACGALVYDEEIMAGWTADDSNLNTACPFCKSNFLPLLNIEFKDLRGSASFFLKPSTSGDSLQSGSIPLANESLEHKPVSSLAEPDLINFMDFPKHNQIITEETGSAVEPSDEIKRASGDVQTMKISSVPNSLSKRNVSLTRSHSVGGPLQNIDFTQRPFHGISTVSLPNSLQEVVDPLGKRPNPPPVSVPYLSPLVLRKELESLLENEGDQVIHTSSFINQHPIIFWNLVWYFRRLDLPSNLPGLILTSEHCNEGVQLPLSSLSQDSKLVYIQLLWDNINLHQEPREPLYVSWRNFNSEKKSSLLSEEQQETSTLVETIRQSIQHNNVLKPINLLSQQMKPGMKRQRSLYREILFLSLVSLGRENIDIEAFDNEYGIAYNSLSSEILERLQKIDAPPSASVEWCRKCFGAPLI
UniProt Q96GG9: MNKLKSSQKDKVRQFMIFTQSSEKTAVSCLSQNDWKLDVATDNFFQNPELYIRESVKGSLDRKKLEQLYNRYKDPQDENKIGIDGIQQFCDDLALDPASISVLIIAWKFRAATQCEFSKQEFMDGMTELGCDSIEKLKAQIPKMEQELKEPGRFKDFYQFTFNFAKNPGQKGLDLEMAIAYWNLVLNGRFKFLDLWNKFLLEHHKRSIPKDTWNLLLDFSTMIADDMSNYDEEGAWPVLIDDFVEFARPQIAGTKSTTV
UniProt O95865: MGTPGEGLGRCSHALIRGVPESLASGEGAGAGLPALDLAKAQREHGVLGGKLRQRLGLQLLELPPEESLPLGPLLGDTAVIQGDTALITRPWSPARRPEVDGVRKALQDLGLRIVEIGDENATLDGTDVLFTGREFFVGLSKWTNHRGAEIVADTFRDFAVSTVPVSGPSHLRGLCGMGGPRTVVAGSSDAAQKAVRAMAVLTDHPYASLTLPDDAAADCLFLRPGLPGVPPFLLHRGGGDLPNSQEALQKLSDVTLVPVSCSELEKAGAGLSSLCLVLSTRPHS
UniProt Q9Y6V7: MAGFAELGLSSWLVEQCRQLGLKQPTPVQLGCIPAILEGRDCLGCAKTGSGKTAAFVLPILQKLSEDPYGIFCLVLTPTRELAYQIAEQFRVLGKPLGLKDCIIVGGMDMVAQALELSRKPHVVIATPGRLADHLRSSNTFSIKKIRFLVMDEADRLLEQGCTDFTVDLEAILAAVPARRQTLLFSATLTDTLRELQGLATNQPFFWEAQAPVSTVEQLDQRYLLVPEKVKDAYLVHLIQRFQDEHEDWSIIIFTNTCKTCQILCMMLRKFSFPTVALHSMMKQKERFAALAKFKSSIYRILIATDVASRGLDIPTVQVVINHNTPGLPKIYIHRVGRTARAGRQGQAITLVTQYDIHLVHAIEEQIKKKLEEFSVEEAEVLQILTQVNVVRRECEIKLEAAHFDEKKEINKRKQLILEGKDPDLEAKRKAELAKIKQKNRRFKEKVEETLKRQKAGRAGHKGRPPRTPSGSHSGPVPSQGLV
UniProt Q9BTE7: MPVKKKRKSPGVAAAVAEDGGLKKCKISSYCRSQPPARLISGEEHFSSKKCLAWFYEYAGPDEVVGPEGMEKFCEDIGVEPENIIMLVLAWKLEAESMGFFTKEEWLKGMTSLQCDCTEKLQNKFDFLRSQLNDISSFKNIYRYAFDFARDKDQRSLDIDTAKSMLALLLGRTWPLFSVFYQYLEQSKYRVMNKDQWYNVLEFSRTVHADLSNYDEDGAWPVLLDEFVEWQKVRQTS
UniProt Q16698: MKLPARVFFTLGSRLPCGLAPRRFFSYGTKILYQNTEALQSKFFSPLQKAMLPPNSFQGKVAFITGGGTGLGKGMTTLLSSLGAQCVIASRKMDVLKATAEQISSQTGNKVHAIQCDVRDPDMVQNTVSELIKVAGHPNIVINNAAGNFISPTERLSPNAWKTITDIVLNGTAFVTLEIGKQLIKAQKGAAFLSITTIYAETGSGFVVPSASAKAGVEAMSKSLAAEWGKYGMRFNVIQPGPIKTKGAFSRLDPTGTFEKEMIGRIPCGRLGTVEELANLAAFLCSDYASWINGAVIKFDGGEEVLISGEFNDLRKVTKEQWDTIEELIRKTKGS
UniProt Q9BTE1, whole entry, looked up: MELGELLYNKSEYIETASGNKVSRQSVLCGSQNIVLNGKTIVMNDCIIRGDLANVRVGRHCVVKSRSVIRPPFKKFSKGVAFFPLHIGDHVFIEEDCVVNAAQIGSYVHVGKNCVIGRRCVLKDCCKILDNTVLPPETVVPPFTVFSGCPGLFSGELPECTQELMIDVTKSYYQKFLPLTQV
UniProt Q9NPI6: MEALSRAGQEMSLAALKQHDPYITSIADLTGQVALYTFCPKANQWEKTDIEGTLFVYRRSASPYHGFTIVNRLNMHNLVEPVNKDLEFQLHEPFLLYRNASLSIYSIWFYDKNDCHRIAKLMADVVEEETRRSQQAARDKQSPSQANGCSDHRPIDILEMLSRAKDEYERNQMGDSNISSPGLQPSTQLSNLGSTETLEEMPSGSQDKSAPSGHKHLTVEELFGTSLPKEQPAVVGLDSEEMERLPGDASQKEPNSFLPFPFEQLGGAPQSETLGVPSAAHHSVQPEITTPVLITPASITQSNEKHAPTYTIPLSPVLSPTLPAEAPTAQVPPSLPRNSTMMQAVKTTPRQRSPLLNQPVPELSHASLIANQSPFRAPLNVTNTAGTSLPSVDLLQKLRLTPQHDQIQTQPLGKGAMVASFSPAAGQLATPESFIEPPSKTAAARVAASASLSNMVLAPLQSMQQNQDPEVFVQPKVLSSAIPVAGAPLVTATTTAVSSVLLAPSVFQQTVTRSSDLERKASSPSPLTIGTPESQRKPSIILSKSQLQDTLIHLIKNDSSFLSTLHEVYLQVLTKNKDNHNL
UniProt Q9NVP1: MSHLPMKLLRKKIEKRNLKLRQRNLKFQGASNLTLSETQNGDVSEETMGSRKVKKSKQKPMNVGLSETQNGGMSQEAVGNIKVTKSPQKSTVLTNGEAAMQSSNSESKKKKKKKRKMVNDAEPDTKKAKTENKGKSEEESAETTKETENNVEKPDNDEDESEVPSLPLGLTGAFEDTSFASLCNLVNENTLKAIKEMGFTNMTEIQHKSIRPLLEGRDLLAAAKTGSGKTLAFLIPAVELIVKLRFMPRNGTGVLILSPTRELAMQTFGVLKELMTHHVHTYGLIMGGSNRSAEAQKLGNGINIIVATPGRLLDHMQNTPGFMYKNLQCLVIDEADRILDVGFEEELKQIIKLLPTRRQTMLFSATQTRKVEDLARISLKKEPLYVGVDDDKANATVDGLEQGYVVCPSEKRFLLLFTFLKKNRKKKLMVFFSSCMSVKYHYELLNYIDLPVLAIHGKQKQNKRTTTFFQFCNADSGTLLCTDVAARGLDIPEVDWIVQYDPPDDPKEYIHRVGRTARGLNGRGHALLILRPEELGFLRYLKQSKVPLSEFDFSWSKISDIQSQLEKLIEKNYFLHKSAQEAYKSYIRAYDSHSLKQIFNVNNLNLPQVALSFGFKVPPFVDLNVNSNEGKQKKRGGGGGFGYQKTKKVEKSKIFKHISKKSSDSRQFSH
UniProt P32321: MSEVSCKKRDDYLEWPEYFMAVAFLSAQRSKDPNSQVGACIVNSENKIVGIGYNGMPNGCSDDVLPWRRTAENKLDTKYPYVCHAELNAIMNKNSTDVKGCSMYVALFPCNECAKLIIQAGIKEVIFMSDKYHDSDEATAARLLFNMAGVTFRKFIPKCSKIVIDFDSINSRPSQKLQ

Compound in the first test: CC[C@@H]1C(=O)N(C)c2cnc(Nc3ccc(C(=O)N[C@H]4CC[C@H](N5CCN(CC6CC6)CC5)CC4)cc3OC)nc2N1C(C)C [volasertib]
The test can be described thus: log2 fold change, soluble protein after heating vs DMSO (PISA); higher = thermal stabilisation; K562 lysate, 10 uM; active = over 0.2 and 3.5 SD of the protein, either way, in both replicates (recomputed). In a few lines:
(§1)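 Log-two fold change in thermal stability relative to solvent controls is reported from duplicates. For each sample, crude K562 extract from dounce-homogenised pellets in PBS pH 7.4 with 1 mM MgCl2, at 1 mg/mL protein, was treated with 10 μM compound for 30 min. Aliquots heated for 3 min across 48°C-58°C were pooled, brought to 0.5% NP-40 at 4°C and cleared at 21,000xg for 90 min. The supernatant was quantified by TMTpro 16plex LC-MS/MS with channel sums equalised.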
Consider DDX39A (UniProt O00148), for which the log2 fold change is inactive: -0.071.

As to DCTN3 (UniProt O75935), the log2 fold change was inactive: -0.003.

In the case of DDX20 (UniProt Q9UHI6), the log2 fold change is inactive: -0.061.

As for DDX59 (UniProt Q5T1V6), the log2 fold change is inactive: 0.014.

Turning to DEK (UniProt P35659), the log2 fold change is inactive: 0.001.

For DENND4C (UniProt Q5VZ89), the log2 fold change was inactive: -0.004.

As to DCP2 (UniProt Q8IU60), the log2 fold change was inactive: -0.061.

Consider CYP24A1 (UniProt Q07973), for which the log2 fold change is inactive: 0.006.

DCUN1D1 (UniProt Q96GG9): the log2 fold change is inactive: 0.01.

Consider DAG1 (UniProt Q14118), for which the log2 fold change is inactive: 0.04.

As to DAZAP1 (UniProt Q96EP5), the log2 fold change is inactive: 0.011.

As for DAB2 (UniProt P98082), the log2 fold change was inactive: -0.021.

For DDAH2 (UniProt O95865), the log2 fold change was inactive: 0.026.

On to DES (UniProt P17661), for which the log2 fold change was inactive: 0.058.

In the case of DDX6 (UniProt P26196), the log2 fold change was inactive: -0.017.

As for DCAF6 isoform 3 (UniProt Q58WW2), the log2 fold change was inactive: -0.011.

Consider DCXR (UniProt Q7Z4W1), for which the log2 fold change was inactive: 0.01.

Take DDX49 (UniProt Q9Y6V7): the log2 fold change is inactive: -0.025.

For DENND6A (UniProt Q8IWF6), the log2 fold change is inactive: -0.062.

DCUN1D5 (UniProt Q9BTE7): the log2 fold change is inactive: -0.043.

In the case of DECR2 (UniProt Q9NUI1), the log2 fold change was inactive: -0.037.

In the case of DBN1 (UniProt Q16643), the log2 fold change was inactive: 0.017.

As to DDX55 (UniProt Q8NHQ9), the log2 fold change was inactive: -0.015.

DFFA (UniProt O00273): the log2 fold change is inactive: 0.021.

As to DCAF1 (UniProt Q9Y4B6), the log2 fold change is inactive: 0.005.

For DDX54 isoform 2 (UniProt Q8TDD1), the log2 fold change is inactive: -0.045.

DECR1 (UniProt Q16698): the log2 fold change is inactive: -0.002.

On to DCTN5 (UniProt Q9BTE1), for which the log2 fold change is inactive: -0.021.

As for D2HGDH (UniProt Q8N465), the log2 fold change was inactive: -0.01.

In the case of DERPC (UniProt P0CG12), the log2 fold change is inactive: 0.15.

On to DCUN1D4 isoform 3 (UniProt Q92564), for which the log2 fold change was inactive: 0.049.

Regarding DCP1A (UniProt Q9NPI6), the log2 fold change is inactive: -0.055.

For DDX18 (UniProt Q9NVP1), the log2 fold change was inactive: -0.02.

For the target DDX46 (UniProt Q7L014), the log2 fold change is inactive: -0.044.

On to DDX17 (UniProt Q92841), for which the log2 fold change was inactive: -0.008.

Consider DCAF7 (UniProt P61962), for which the log2 fold change is inactive: -0.003.

With DDX39B isoform 2 (UniProt Q13838), the log2 fold change was inactive: -0.013.

With DDX21 (UniProt Q9NR30), the log2 fold change was inactive: -0.005.

Turning to DCTD isoform 2 (UniProt P32321), the log2 fold change was inactive: 0.025.

As for CZIB (UniProt Q9NWV4), the log2 fold change is inactive: 0.027.

Compound in another test: CCn1c(C(=O)N(C2CC2)C2CC2)cc2c3c(ncn3C)c(Nc3cc(C)n(C)n3)nc21
The test is described as above. In a few lines:
as §1
DDX39A (UniProt O00148): the log2 fold change was inactive: -0.028.

With DCTN3 (UniProt O75935), the log2 fold change is inactive: 0.025.

Turning to DDX20 (UniProt Q9UHI6), the log2 fold change was inactive: 0.036.

Regarding DDX59 (UniProt Q5T1V6), the log2 fold change was inactive: 0.055.

Regarding DEK (UniProt P35659), the log2 fold change was inactive: -0.011.

Regarding DENND4C (UniProt Q5VZ89), the log2 fold change was inactive: 0.008.

As for DCP2 (UniProt Q8IU60), the log2 fold change was inactive: -0.028.

As for CYP24A1 (UniProt Q07973), the log2 fold change is inactive: -0.212.

Consider DCUN1D1 (UniProt Q96GG9), for which the log2 fold change was inactive: 0.088.

Regarding DAG1 (UniProt Q14118), the log2 fold change is inactive: -0.046.

Consider DAZAP1 (UniProt Q96EP5), for which the log2 fold change was inactive: 0.065.

In the case of DAB2 (UniProt P98082), the log2 fold change was inactive: 0.02.

In the case of DDAH2 (UniProt O95865), the log2 fold change was inactive: 0.001.

Regarding DES (UniProt P17661), the log2 fold change is inactive: -0.026.

Turning to DDX6 (UniProt P26196), the log2 fold change was inactive: 0.01.

In the case of DCAF6 isoform 3 (UniProt Q58WW2), the log2 fold change was inactive: -0.005.

As to DCXR (UniProt Q7Z4W1), the log2 fold change is inactive: 0.011.

On to DDX49 (UniProt Q9Y6V7), for which the log2 fold change is inactive: -0.023.

In the case of DENND6A (UniProt Q8IWF6), the log2 fold change was inactive: 0.019.

For the target DCUN1D5 (UniProt Q9BTE7), the log2 fold change is inactive: -0.041.

As for DECR2 (UniProt Q9NUI1), the log2 fold change is inactive: 0.044.

As to DBN1 (UniProt Q16643), the log2 fold change is inactive: -0.009.

With DDX55 (UniProt Q8NHQ9), the log2 fold change is inactive: 0.035.

Consider DFFA (UniProt O00273), for which the log2 fold change is inactive: 0.013.

Take DCAF1 (UniProt Q9Y4B6): the log2 fold change is inactive: -0.013.

For the target DDX54 isoform 2 (UniProt Q8TDD1), the log2 fold change is inactive: 0.053.

Take DECR1 (UniProt Q16698): the log2 fold change is inactive: 0.009.

As for DCTN5 (UniProt Q9BTE1), the log2 fold change is inactive: 0.055.

As for D2HGDH (UniProt Q8N465), the log2 fold change is inactive: -0.079.

On to DERPC (UniProt P0CG12), for which the log2 fold change is inactive: 0.158.

As for DCUN1D4 isoform 3 (UniProt Q92564), the log2 fold change is inactive: -0.02.

As to DCP1A (UniProt Q9NPI6), the log2 fold change is inactive: 0.029.

As for DDX18 (UniProt Q9NVP1), the log2 fold change was inactive: 0.012.

Regarding DDX46 (UniProt Q7L014), the log2 fold change is inactive: 0.011.

Take DDX17 (UniProt Q92841): the log2 fold change was inactive: 0.006.

Regarding DCAF7 (UniProt P61962), the log2 fold change was inactive: 0.051.

Turning to DDX39B isoform 2 (UniProt Q13838), the log2 fold change is inactive: 0.011.

Consider DDX21 (UniProt Q9NR30), for which the log2 fold change was inactive: -0.002.

In the case of DCTD isoform 2 (UniProt P32321), the log2 fold change was inactive: 0.002.

As for CZIB (UniProt Q9NWV4), the log2 fold change was inactive: 0.016.

(Values after the supplement of paper PMC10849652.)
